# PubChem BioAssay AID1224830 | NIAID | 2016
# Assay: 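Genes whose knock-down alters the TNF-alpha reporter response to LPS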 (primary screen)
# Cells: human THP-1 monocytic leukaemia cells, TNF dual-luciferase reporter clone, PMA-differentiated to macrophage-like cells
# Reagent: siRNA pool against human genes, 50 nM
# Time to read-out: LPS for 4 h, given about 3 days after siRNA transfection
# Treatment: bacterial LPS (TLR4 ligand), 10 ng/ml
# Measured: 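Ratio of firefly to renilla light, scaled to the plate median and expressed as a robust z-score per replicate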
# Direction: TNF reporter robust z-score: higher = stronger TNF reporter response to LPS
# Call rule: 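Each well counts as active if its z-score is over 2.8 or under -1.5; controls are left without a call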
# Here is a random part of about 18,000 reagents. About 2,900 of them (16%) were called active. 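Calls are made per well; low scores hint the gene aids the LPS response, high scores that it dampens it.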 Repeated entries: four replicate wells of each siRNA pool.
gene,TNF reporter robust z-score,outcome
HEXIM1,-0.38,inactive
HEXIM1,-1.06,inactive
HEXIM1,-1.19,inactive
HEXIM1,-0.72,inactive
CMPK1,1.1,inactive
CMPK1,0.64,inactive
CMPK1,0.53,inactive
CMPK1,0.31,inactive
PROC,-1.11,inactive
PROC,1.08,inactive
PROC,0.12,inactive
PROC,1.97,inactive
TRAPPC2,-0.63,inactive
TRAPPC2,-1.07,inactive
TRAPPC2,-1.01,inactive
TRAPPC2,-1.34,inactive
FAM131A,3.18,active
FAM131A,1.56,inactive
FAM131A,2.53,inactive
FAM131A,2.49,inactive
CDNF,-1.2,inactive
CDNF,0.1,inactive
CDNF,-1,inactive
CDNF,0.97,inactive
PRB4,0.8,inactive
PRB4,1.89,inactive
PRB4,0.2,inactive
PRB4,0.57,inactive
CRTC2,-0.65,inactive
CRTC2,0.76,inactive
CRTC2,0.93,inactive
ZMYM2,-0.22,inactive
ZMYM2,0.77,inactive
ZMYM2,-0.07,inactive
ZMYM2,2.49,inactive
IL36RN,-0.63,inactive
IL36RN,-0.69,inactive
IL36RN,-0.44,inactive
IL36RN,-0.09,inactive
STARD6,0.43,inactive
STARD6,0.3,inactive
STARD6,0.08,inactive
STARD6,0.72,inactive
NFKBIE,-2.13,active
NFKBIE,-1.88,active
NFKBIE,-2.03,active
NFKBIE,-1.58,active
POTEH,-1.05,inactive
POTEH,-0.32,inactive
POTEH,-0.85,inactive
POTEH,0.61,inactive
UTP20,-1.7,active
UTP20,-1.02,inactive
UTP20,-0.22,inactive
UTP20,0.19,inactive

Additional entries follow.
gene,TNF reporter robust z-score,outcome
LTA,-0.65,inactive
LTA,-0.41,inactive
LTA,-0.52,inactive
POLA1,0.27,inactive
POLA1,0.04,inactive
POLA1,0.22,inactive
POLA1,0.92,inactive
RHOBTB2,-1.34,inactive
RHOBTB2,0.77,inactive
RHOBTB2,0.34,inactive
RHOBTB2,0.2,inactive
LINC02872,0.33,inactive
LINC02872,0.69,inactive
LINC02872,1.59,inactive
LINC02872,1.03,inactive
IPPK,-0.27,inactive
IPPK,-0.69,inactive
IPPK,0.98,inactive
IPPK,0.85,inactive
ZNF500,-0.37,inactive
ZNF500,-0.16,inactive
ZNF500,1.93,inactive
ZNF500,0.76,inactive
OR2AG2,-0.71,inactive
OR2AG2,-0.05,inactive
OR2AG2,-0.67,inactive
OR2AG2,0.31,inactive
MASP1,-0.29,inactive
MASP1,-0.49,inactive
MASP1,-1.18,inactive
MASP1,-0.03,inactive
POM121L2,2.26,inactive
POM121L2,-0.11,inactive
POM121L2,-0.18,inactive
POM121L2,1.81,inactive
XRCC5,0.49,inactive
XRCC5,1.08,inactive
XRCC5,0.23,inactive
XRCC5,0.78,inactive
SDHD,-1.61,active
SDHD,-1.51,active
SDHD,-1.88,active
SDHD,-1.2,inactive
EMP3,-0.43,inactive
EMP3,0.81,inactive
EMP3,0.59,inactive
EMP3,0.67,inactive
DNAJB12,-0.04,inactive
DNAJB12,0.48,inactive
DNAJB12,-1.1,inactive
DNAJB12,0.21,inactive
CCNT1,1.66,inactive
CCNT1,1.99,inactive
CCNT1,0.02,inactive
CCNT1,1.94,inactive
